We go through 10 molecules from article PMC1414084.

No constants are given. Whether binding was seen depends on the method and setting. Some entries that bind do so weakly or less than the wild type.

Common to all, as to experiment: two-hybrid; mammalian two-hybrid; bait fused to the Gal4 DNA-binding domain (BIND), prey to the VP16 transcriptional activation domain (ACT); luciferase reporter; cultured mammalian cells, 37°C; positive from 3 times the background activity (level 1), the selected set is level 2 (>=5 to <10 times) and level 3 (>=10 times)
Test [1] deals with PH1850, hypothetical protein (Pyrococcus horikoshii OT3) (UniProt O59506).
Test [2] deals with T1, PH1983, AtpH, archaeal or vacuolar-type H^+-ATPase subunit H (Pyrococcus horikoshii OT3) (UniProt O57720).
T1 sequence: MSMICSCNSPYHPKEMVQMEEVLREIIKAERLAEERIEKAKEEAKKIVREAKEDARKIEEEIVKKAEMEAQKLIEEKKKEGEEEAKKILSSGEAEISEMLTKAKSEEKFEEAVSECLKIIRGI

Test [3] addresses PH1931, hypothetical protein (Pyrococcus horikoshii OT3) (UniProt O59594).
Test [4] addresses T2, PH0490, chemotaxis protein CheD (Pyrococcus horikoshii OT3) (UniProt O58226).
T2 sequence: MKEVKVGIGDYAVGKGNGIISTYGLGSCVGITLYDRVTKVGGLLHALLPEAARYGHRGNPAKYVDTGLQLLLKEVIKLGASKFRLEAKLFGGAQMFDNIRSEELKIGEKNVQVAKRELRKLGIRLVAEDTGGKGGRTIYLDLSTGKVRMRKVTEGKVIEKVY

Test [5] deals with PH0860, hypothetical protein (Pyrococcus horikoshii OT3) (UniProt O58590).
Test [6] addresses T3, PH0245, 20S proteasome subunit (Pyrococcus horikoshii OT3) (UniProt O57983).
T3 sequence: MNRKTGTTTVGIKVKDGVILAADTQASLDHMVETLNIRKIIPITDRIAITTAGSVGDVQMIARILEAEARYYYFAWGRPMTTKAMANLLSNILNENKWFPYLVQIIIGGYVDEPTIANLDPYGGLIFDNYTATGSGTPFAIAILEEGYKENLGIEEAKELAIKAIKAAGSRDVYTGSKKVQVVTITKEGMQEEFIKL

Test [7] has as its target PH0655, threonine-3-dehydrogenase (Pyrococcus horikoshii OT3) (UniProt O58389).
For test [8], the target named is PH1191, hypothetical protein (Pyrococcus horikoshii OT3) (UniProt O58905).
The target of test [9] is T4, PH0229, indolepyruvate ferredoxin oxidoreductase subunit (Pyrococcus horikoshii OT3) (UniProt O57968).
T4 sequence: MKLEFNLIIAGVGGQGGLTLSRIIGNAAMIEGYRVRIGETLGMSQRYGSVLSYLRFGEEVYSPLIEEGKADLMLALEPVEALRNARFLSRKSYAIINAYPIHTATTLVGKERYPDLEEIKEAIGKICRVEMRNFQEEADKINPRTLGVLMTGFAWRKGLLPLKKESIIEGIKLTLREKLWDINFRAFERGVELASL

Test [10] addresses T5, PH0764, indolepyruvate ferredoxin oxidoreductase subunit (Pyrococcus horikoshii OT3) (UniProt O58496).
T5 sequence: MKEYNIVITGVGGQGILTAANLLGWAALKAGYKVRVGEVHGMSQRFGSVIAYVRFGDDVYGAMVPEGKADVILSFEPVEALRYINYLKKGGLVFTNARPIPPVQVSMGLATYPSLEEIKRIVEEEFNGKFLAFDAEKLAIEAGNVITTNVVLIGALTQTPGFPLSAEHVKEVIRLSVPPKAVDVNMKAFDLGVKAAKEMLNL

In test [11] the target is PH1126, hypothetical protein (Pyrococcus horikoshii OT3) (UniProt O58853).

B1: PH1850, hypothetical protein (protein, UniProt O59506 1-264)
chain: MYQEFFTFIPVDIEELDKAFGGGLIRGATISIMYDAFSLGWALGFEMVKNLIRRNSFGVIHNYNLPTIKLISRASFVGLNIQELAKRKEIMILDVFGSKYDVPPYADYVLQVPNPTPETLNPKIESVYENKIFQVAGDRRIVKLVYTLDGVATMFGEEVAIKLLNGELAWLAKMYGKRNVMTILLLNVDMVSKKFIAWTSGVSDIVITFQSLTEEREGELVERMTVIKSLNPEFEPTSYEFRVTATGTGSHALDFRKIENKRDK
Take B1: the binding result in test [1] is on record as “binds”.

B2: PH1978, AtpE, archaeal or vacuolar-type H^+-ATPase subunit E (protein, UniProt O57724 1-198)
chain: MNGAELIIQEINKEAERKIEYILNEARQQAEKIKEEARRNAEAKAEWIIRRAKTQAELEKQRIIANARLEVRRKRLAIQEEIISSVLEEVKRRLETMSEDEYFESVKALLKEAIKELNEKKVRVMSNEKTLGLIASRIEEIKSELGDVSIELGETVDTMGGVIVETEDGRIRIDNTFEARMERFEGEIRSTIAKVLFG
For the molecule B2, in test [2], the binding result is on record as “binds”.

B3: PH1931, hypothetical protein (protein, UniProt O59594 1-101)
chain: MMARGIRLLVLDVLKPHQPLVTELALGLSELEGVEGVNITLVEIDKETENIKVTIVGDNLNYDEIVRTIEEFGGVVHSIDMVAAGRKIIEEEETPQDKLEE
Consider B3, for which the binding result in [3] is on record as “binds”.

B4: PH0487, chemotaxis protein CheC (protein, UniProt O58223 1-212)
chain: MDIVDEKWEEYLKNLDEMSKSALLETFNIGASHAATALSEMTGKEVNISVPDLKIIAIKNVPEVVGEDVKVAVYIELGKDFSSHAFFIADYEDALRMFDIIMGNPLGTTKEMDEMVKSSFMEVGNILISAFANALSEFLGITIEQTPPSLAIDFLPAILDFALADIGKYCDYTIILQTNIKISDVKFEEHFLLFPKPEDMKKILEKLLGGFA
Take B4: the binding result in [4] is “binds”.

B5: PH0860, hypothetical protein (protein, UniProt O58590 1-221)
chain: MERLEDLFEKSKFGELILFEYNSTTPLLFIVYPLIKWAREKGYPLVIFDIFDSLTIYTKQAEMLGIKDKLYEGANIVKIGGRMNLGNIILKISIIEYGPFEKTLEDTLEKAYGERENVISIVLGTEKIFSFYPFRDQFMFSNFLALKTGDRRRKAFYFVNVDLLEKISPPMGPLLEEEFTTVVKLTKEDNKIKMKVIKSLNPELDGMELKVNAHTLIASNR
Turning to B5, in test [5], the binding entry is given as “binds”.

B6: PH1553, 20S proteasome subunit (protein, UniProt O59219 1-260)
chain: MAFVPPQAGYDRAITVFSPDGRLFQVNYAREAVKRGATAVGVKCNEGVVLAVEKRITSRLIEPESYEKIFQIDDHIAAASSGIIADARVLVNRARLEAQIHRLTYGEPAPLAVIVKKICDLKQMHTQYGGVRPFGAALLMAGVNEKPELYETDPSGAYFAWKAVAIGSGRNTAMAIFEEKYKDDMSLEEAIKLAIFALAKTMEKPSAENIEVAIITVKDKKFRKLSREEIEKYLNEVMKEVEEEEVKEKEEDYSELDSHY
Regarding B6, in [6], the binding result is recorded as “binds”.

B7: PH0655, threonine-3-dehydrogenase (protein, UniProt O58389 1-348)
chain: MSEKMVAIMKTKPGYGAELVEVDVPKPGPGEVLIKVLATSICGTDLHIYEWNEWAQSRIKPPQIMGHEVAGEVVEIGPGVEGIEVGDYVSVETHIVCGKCYACRRGQYHVCQNTKIFGVDTDGVFAEYAVVPAQNIWKNPKSIPPEYATLQEPLGNAVDTVLAGPISGKSVLITGAGPLGLLGIAVAKASGAYPVIVSEPSDFRRELAKKVGADYVINPFEEDVVKEVMDITDGNGVDVFLEFSGAPKALEQGLQAVTPAGRVSLLGLYPGKVTIDFNNLIIFKALTIYGITGRHLWETWYTVSRLLQSGKLNLDPIITHKYKGFDKYEEAFELMRAGKTGKVVFMLK
Consider B7, for which the binding result in [7] is “binds”.

B8: PH1191, hypothetical protein (protein, UniProt O58905 1-160)
chain: MHAHRSTPSFSKVIFRLFTITTLIFLTYFGYSTFAEHDPIKERLYELGYPDQGFIFTNSTIKWADGHLTIVQGTYIEDYPVTAEQAYEIARQYLASYNKKLEKYNYKLYPDKETLTEKEKDGQRYWVFELKLKTGNSDFFAGFIWVNRKTGTVSVKGLLG
For B8, the binding entry in test [8] is “binds”.

B9: PH1138, indolepyruvate ferredoxin oxidoreductase subunit (protein, UniProt O58865 1-618)
chain: MGGIKVKRLLMGNEAIAYGALEAGVSFATGYPGTPSTEVIETIARLKPEVFAEWAPNEKVALEEAAGASYAGIRSLVTMKCVGLNVAADPLMSLAYSGVEGGLVVLVADDPGPHTSQTEQDDRYYGKISLLPVLEPYDPQEAHDLIKYAYELSEKYKVPIIFRTTTRVNHTTADVEVGEFKDLNRIPKFKKDIERYVRASMEGNRKRHKWLNETLKKIEEEFNNLDYNWIEGDGKIGIIVEGAPYNYVKEVLPSIEGDFKILKLSTPHPLPRKIVINFLKSVEKALVIEEGAPFLEEEIKVVAYEEGLRVPIYGKRTGYLPLEGELTPRLVKNAILKLLGKEGEEVSLPKEVEEAERLAPKRPPVMCPGCPHRGSYRALLDALRELGYGKFDIPIHGDIGCYALSLLPPLEAIWTEFVMGASISLANGQSVVMGKKIVATIGDSTFFHNGIQPLIDAVYKDLDVLVIILDNRTTAMTGHQPHPGTGGSETGRKFREIDIEALVKGIGVKYVKTVDPYDLKATKEAIKEAMKVKGPAVIIARRECVIPVIRRGETREPPIVIEDKCTGCKACILLSGCPALIYDPETRKVRIDELICTGCGICNQLCPFDAIKFREELQ
With B9, the binding entry in test [9] and in [10] was “binds” in each case.

B10: PH1126, hypothetical protein (protein, UniProt O58853 1-207)
chain: MIPVKFKGATFGRLVKLEFEILRLGELKIDDISEFNTKDIKLEIRATSSGIKLIGVWEGDISEVGEAIKRALDESMKLRERLLRKMRNKVERIRKTLTEMGFSEESIGYGDAIRFTKRIGEYEVAIVVSSRDDIVRVEVYGGNKKLLAPELEAFFESVDIEELEIYDVDEDGREERVVINLELPKTDEKPEKRIIEAVKVLENILMA
With B10, the binding entry in [11] was “binds”.
